From ChEMBL document CHEMBL3988442, “University of Dundee, Small-Polar-MMV Screening Library” (2021).

By UniProt entry, the sequences of proteins in these tests, tags left out.
UniProt P9WPC5, whole entry: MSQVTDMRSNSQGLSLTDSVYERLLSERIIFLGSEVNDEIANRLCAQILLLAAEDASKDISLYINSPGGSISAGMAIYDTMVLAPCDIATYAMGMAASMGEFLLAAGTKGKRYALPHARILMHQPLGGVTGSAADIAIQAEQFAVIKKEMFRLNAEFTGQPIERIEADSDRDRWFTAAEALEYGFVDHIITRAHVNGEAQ
UniProt P9WPC3, whole entry partner: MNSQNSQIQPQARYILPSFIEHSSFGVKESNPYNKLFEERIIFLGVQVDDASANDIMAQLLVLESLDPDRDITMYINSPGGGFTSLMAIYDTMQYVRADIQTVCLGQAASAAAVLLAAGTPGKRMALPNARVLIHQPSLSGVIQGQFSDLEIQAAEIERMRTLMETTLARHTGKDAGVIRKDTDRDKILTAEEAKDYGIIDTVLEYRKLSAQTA
UniProt I6X8D2, whole entry: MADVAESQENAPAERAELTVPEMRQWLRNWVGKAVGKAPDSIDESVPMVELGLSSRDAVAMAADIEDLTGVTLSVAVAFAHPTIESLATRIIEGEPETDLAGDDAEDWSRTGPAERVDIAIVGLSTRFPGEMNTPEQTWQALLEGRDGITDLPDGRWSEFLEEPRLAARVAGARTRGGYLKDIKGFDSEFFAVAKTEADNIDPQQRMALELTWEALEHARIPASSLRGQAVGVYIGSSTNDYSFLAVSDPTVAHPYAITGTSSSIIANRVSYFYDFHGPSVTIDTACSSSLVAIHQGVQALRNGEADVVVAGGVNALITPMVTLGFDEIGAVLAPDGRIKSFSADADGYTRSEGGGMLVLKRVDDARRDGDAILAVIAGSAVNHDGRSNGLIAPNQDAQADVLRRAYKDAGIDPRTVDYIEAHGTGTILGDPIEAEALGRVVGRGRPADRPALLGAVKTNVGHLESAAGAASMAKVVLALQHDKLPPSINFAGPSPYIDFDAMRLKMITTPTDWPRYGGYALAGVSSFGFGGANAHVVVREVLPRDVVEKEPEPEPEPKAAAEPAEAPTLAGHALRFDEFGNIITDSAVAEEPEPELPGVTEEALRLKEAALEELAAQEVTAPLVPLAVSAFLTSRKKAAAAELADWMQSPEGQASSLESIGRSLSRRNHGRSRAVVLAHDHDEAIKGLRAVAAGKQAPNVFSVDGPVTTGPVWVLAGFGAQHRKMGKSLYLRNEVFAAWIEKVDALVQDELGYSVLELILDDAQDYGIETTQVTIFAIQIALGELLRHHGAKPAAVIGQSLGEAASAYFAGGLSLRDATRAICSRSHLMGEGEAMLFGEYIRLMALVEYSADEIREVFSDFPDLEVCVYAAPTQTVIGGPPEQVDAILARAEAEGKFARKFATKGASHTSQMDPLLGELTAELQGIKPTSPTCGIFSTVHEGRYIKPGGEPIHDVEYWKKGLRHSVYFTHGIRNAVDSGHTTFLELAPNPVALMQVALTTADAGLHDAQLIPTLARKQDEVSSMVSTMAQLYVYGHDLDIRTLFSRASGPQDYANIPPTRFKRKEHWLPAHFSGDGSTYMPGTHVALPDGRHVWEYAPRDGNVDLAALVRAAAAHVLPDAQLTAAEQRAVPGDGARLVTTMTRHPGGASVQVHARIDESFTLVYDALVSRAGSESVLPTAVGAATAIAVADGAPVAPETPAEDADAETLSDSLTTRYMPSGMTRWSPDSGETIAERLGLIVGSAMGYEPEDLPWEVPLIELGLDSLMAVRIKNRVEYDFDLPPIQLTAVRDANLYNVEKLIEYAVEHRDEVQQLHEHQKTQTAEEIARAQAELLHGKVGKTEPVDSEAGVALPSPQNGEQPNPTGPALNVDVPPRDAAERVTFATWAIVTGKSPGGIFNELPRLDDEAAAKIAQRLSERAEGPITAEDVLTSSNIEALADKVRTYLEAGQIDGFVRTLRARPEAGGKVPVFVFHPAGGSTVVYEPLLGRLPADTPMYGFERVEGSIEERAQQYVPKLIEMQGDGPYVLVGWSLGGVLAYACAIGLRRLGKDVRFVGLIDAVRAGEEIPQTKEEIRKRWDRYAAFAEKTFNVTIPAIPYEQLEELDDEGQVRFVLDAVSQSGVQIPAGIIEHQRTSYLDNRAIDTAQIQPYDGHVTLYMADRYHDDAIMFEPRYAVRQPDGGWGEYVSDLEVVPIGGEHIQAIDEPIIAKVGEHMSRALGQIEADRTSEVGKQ

ClpP1P2: 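ClpP1P2, Mycobacterium tuberculosis (UniProt P9WPC5 and UniProt P9WPC3). Protease assay of ClpP1P2, read by the AMC dye that it sets free. Compounds at 50 µM. Higher reads as stronger inhibition, judged from the few compounds that gave an IC50. Most other retested compounds had strongly negative values. About 69,000 compounds were tested under these conditions; 0.015% (about 10) showed 50% or more at least once.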
Pks13 thioesterase: 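Polyketide synthase Pks13, Mycobacterium tuberculosis (UniProt I6X8D2). Enzyme assay of the thioesterase domain of polyketide synthase 13; the read-out is not stated. Compounds at 30 µM. The record gives no direction; the compounds picked for IC50 retests had high values, so higher reads as stronger inhibition. Size under these conditions: about 67,000 compounds, about 300 of them at 50% or above in at least one test.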

Values are the deposited “Percent Effect”, in %. The record does not define 0% and 100%; most values in the screen are far below 50% and negative numbers occur (in some assays of this library far below -100). This is an unselected part of the compounds tested.

- Cc1nc([C@H]2C[C@@H]3CCN(Cc4cnn(C)c4)C[C@H]3O2)sc1C : ClpP1P2: -11.86%; Pks13 thioesterase: 11.93%
- Cc1nc(C)n(C2CCCN(C(=O)c3nc(C)n4ccccc34)C2)n1 (stereo not drawn) : ClpP1P2: -321.4%; Pks13 thioesterase: 93.61%
- Cc1cccc(CN2C[C@@H]3CN(C(=O)c4cnccn4)C[C@@H]3C2=O)c1 : ClpP1P2: -14.33%; Pks13 thioesterase: -26.76%
- CC(C)(C)c1cc(NC(=O)CN2CCc3cncnc3C2)on1 : ClpP1P2: -22.27%; Pks13 thioesterase: -21.88%
- COCCCC(=O)Nc1[nH]nc(-c2ccncc2)c1C : ClpP1P2: 1.994%; Pks13 thioesterase: -30.73%
- CN(C)CCNC(=O)c1noc2c1CN(C(=O)N(C)C)CC2 : ClpP1P2: 2.439%; Pks13 thioesterase: -11.37%
- O=C1N(c2cccnc2)CCC12CCCN(Cc1ccoc1)C2 (stereo not drawn) : ClpP1P2: -3.171%; Pks13 thioesterase: -31.11%
- OCC1(NCc2cnc(-c3ccsc3)s2)CCOCC1 : ClpP1P2: -20.86%; Pks13 thioesterase: -11.71%
- COc1nn(C)c2c1CCCN(C(=O)c1ccc(C)c(F)c1)C2 : ClpP1P2: -3.666%; Pks13 thioesterase: 1.337%
- CC(C)CN1C[C@H]2C[C@H](C(=O)Nc3cccnc3)[C@@H](C1)O2 : ClpP1P2: -4.431%; Pks13 thioesterase: -26.91%
- CCn1cc(-c2cc(C(F)(F)F)nc(NC3CCCC3)n2)c(C)n1 : ClpP1P2: 1.986%; Pks13 thioesterase: 35.4%
- Cc1cc(C)nc(N2CCCC2c2cccnc2)n1 (stereo not drawn) : ClpP1P2: 4.826%; Pks13 thioesterase: 4.473%
- CN(C)C(=O)COC[C@]12COC[C@H]1CN(C1CCCC1)C2 : ClpP1P2: -1.372%; Pks13 thioesterase: 0.2269%
- Cc1cc2nc(C(C)C)cc(NCc3ccncc3)n2n1 : ClpP1P2: -15.58%; Pks13 thioesterase: -34.5%
- Cn1cc(CN2C[C@@H]3[C@@H](C2)OCC(=O)N3Cc2ccncc2)cn1 : ClpP1P2: -2.443%; Pks13 thioesterase: -10.4%
- COc1ccccc1OCC(=O)NCc1ncc(C)c(OC)c1C : ClpP1P2: -3.908%; Pks13 thioesterase: -18.06%
- O=C(O)C1CN(Cc2cccc(-c3ccccn3)c2)CCO1 (stereo not drawn) : ClpP1P2: -7.599%; Pks13 thioesterase: -17.75%
- O=C(CN(C1=NCCCC1)c1ccccc1)c1ccc(OC(F)F)cc1 : ClpP1P2: -10.15%; Pks13 thioesterase: -12.22%
- CC(C)c1nc(CN2CCOC(Cn3cccn3)C2)no1 (stereo not drawn) : ClpP1P2: -14.66%; Pks13 thioesterase: -9.13%
- O=C1C[C@H]2CC[C@@H](CN1)N2C(=O)Cc1ccsc1 : ClpP1P2: 13.65%; Pks13 thioesterase: -24.26%
- Cc1noc([C@H]2COC[C@H]3CN(C(=O)Cc4cccc(F)c4)C[C@H]32)n1 : ClpP1P2: 4.868%
- CCCc1cc(=O)n(CC(N)=O)c(-n2nc(C)cc2C)n1 : ClpP1P2: -8.816%; Pks13 thioesterase: -16.77%
- CCN(C(=O)c1c(Cl)cnn1CC)C(C)C(N)=O (stereo not drawn) : ClpP1P2: -10.39%; Pks13 thioesterase: 1.928%
- CCc1c(C)sc2c1c(N)nc(=O)n2CCN1CCCCC1 : ClpP1P2: 13.48%; Pks13 thioesterase: -14.99%
- Cc1nnc(CN2CCN(C)C3(CCNC(=O)CC3)C2)s1 (stereo not drawn) : ClpP1P2: -15.26%; Pks13 thioesterase: 7.511%
- Cc1cccc(OCC(=O)N2CCN(C3CCOC3=O)CC2)c1C (stereo not drawn) : ClpP1P2: -25.76%; Pks13 thioesterase: 1.302%
- CCN(Cc1nonc1C)C(=O)Cn1nc(C(F)(F)F)cc1C1CC1 : ClpP1P2: -5.533%; Pks13 thioesterase: -20.34%
- CCOC1COC2(CCN(Cc3ccc4c(c3)OCO4)CC2)C1 (stereo not drawn) : ClpP1P2: 4.558%; Pks13 thioesterase: -9.631%
- COc1ccccc1CN1CCC(Cc2cnc(CN(C)C)cn2)CC1 : ClpP1P2: -30.53%; Pks13 thioesterase: 5.207%
- COCC1CN(Cc2ccoc2)Cc2cn(CC3CCOCC3)nc21 (stereo not drawn) : ClpP1P2: -3.55%; Pks13 thioesterase: -20.52%
- O=C(O)C[C@@H]1CCN(C(=O)C2CCCC2)C[C@@H]1CCN1CCCCC1 : ClpP1P2: 2.019%; Pks13 thioesterase: -29.97%
- O=C(c1cscn1)N1CC[C@@H]2[C@@H]1CCN2CC1CCOC1 (stereo partly drawn) : ClpP1P2: 1.738%; Pks13 thioesterase: 9.752%
- Cc1nc(CNC(C(=O)N2CCOCC2)C(C)C)oc1C (stereo not drawn) : ClpP1P2: 4.934%; Pks13 thioesterase: -20.73%
- Cc1noc(C)c1CNS(=O)(=O)N(C)Cc1ccccc1Br : ClpP1P2: -8.565%; Pks13 thioesterase: -14.09%
- Cc1noc(C(C)C)c1C(=O)NCC1CCCN1Cc1ccccc1 (stereo not drawn) : ClpP1P2: 1.454%; Pks13 thioesterase: -45.37%
- Cc1nn(C)c(N(C)C)c1CNCc1cccnc1N(C)C : ClpP1P2: 10.62%; Pks13 thioesterase: -26.18%
- Cc1c(F)cccc1S(=O)(=O)NC(C)(C)CN : ClpP1P2: -4.236%; Pks13 thioesterase: -31.15%
- O=C1CCCN1CC1CN(CC2CCOCC2)Cc2nccn2C1 (stereo not drawn) : ClpP1P2: 10.05%; Pks13 thioesterase: -34.44%
- Nc1nc(C(=O)NCC2CCC3(CCNCC3)CO2)cs1 (stereo not drawn) : ClpP1P2: -3.169%; Pks13 thioesterase: -28.62%
- CCn1c(C)nc2cc(NC(=O)C3CN(C(C)=O)C3)ccc21 : ClpP1P2: -6.09%; Pks13 thioesterase: 0.5657%
- c1cn(Cc2nnc(C3CCN(C4CCNCC4)CC3)n2C2CC2)cn1 : ClpP1P2: -3.994%; Pks13 thioesterase: 1.193%
- Cc1noc(C)c1CN(C)C(=O)C1(NS(C)(=O)=O)CCCCC1 : ClpP1P2: -0.3647%; Pks13 thioesterase: -5.177%
- CCc1cc(C(=O)NCC2CCN(Cc3ccncc3)CC2)on1 : ClpP1P2: 4.84%; Pks13 thioesterase: -30.98%
- CN(C)CC1CN(Cc2nnc(C(C)(C)C)o2)CCO1 (stereo not drawn) : ClpP1P2: 29.08%; Pks13 thioesterase: -21.85%

Some entries from above, unchanged:

compound	ClpP1P2	Pks13 thioesterase
CN(C)C(=O)COC[C@]12COC[C@H]1CN(C1CCCC1)C2	-1.372%	0.2269%
c1cn(Cc2nnc(C3CCN(C4CCNCC4)CC3)n2C2CC2)cn1	-3.994%	1.193%
COCCCC(=O)Nc1[nH]nc(-c2ccncc2)c1C	1.994%	-30.73%